Data from publication doi:10.1101/2021.06.20.449126.
Where two headings read alike, the source gives them in different places. These are yes or no findings as the source states them, for the method shown. In cells and extracts the contact can be indirect. Some results given as binding are weak or reduced against the parent protein; the word gives no strength. For some assays here: Sequences can lack the tags named with a protein.

Sequences of proteins named here, by UniProt entry; tags and fusion partners are left off.
UniProt Q5VT52: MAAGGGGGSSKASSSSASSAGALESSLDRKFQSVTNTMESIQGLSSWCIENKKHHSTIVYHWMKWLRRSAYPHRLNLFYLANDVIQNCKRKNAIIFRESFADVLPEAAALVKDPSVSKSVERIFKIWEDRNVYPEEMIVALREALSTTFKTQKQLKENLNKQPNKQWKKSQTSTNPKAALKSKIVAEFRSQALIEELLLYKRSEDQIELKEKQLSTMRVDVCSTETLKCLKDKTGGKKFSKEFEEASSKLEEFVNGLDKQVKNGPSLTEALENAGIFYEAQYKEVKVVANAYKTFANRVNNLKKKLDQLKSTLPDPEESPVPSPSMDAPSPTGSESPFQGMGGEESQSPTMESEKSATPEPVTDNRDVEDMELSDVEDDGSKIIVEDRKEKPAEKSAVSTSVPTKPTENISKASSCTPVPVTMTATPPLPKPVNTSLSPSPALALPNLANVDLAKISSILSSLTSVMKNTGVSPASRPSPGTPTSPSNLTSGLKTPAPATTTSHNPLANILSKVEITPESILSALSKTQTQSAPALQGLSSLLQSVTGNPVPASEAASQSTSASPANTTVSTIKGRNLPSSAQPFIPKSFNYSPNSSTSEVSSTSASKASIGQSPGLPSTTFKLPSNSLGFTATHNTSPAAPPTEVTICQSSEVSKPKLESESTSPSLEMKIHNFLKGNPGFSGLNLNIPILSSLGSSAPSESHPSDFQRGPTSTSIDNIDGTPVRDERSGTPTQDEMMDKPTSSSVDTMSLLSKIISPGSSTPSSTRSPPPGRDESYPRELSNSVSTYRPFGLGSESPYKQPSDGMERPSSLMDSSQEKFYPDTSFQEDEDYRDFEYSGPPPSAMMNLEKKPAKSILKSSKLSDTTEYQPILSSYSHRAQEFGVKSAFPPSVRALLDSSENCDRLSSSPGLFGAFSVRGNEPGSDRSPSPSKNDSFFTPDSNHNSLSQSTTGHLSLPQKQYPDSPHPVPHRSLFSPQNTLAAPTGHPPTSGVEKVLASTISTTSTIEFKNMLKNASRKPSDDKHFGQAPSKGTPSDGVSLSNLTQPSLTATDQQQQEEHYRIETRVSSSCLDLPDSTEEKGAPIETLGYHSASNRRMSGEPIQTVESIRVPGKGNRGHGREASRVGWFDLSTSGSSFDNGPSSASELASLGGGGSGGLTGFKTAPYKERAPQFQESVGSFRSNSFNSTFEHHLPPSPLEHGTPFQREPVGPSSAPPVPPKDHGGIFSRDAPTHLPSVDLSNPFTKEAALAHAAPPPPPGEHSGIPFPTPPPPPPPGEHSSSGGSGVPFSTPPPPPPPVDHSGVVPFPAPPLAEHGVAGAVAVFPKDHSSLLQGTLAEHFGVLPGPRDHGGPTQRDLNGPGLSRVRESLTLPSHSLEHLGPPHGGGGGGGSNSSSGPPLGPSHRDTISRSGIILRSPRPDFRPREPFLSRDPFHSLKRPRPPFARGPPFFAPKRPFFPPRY

T1: full-length (FL) RPRD1B-3F, tetracycline-inducible, Flp-In T-REx 293 (human) (UniProt Q9NQG5)
T1 sequence: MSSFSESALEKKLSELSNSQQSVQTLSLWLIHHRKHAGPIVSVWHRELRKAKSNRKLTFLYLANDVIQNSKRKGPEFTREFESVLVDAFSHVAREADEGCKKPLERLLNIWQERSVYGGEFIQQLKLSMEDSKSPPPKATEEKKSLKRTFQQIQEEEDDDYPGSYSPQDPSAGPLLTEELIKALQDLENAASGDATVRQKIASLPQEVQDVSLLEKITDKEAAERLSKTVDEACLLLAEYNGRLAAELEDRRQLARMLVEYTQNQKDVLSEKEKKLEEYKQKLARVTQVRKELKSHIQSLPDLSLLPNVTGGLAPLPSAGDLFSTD

T2: RPRD1A CID domain variant, 3F-tagged (human) (UniProt Q96P16)
T2 sequence: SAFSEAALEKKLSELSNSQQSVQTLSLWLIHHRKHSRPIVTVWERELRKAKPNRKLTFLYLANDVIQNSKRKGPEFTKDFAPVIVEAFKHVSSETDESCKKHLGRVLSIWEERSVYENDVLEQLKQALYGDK

T3: full-length RPRD1A-3F, tetracycline-inducible, Flp-In T-REx 293 (human) (UniProt Q96P16)
T3 sequence: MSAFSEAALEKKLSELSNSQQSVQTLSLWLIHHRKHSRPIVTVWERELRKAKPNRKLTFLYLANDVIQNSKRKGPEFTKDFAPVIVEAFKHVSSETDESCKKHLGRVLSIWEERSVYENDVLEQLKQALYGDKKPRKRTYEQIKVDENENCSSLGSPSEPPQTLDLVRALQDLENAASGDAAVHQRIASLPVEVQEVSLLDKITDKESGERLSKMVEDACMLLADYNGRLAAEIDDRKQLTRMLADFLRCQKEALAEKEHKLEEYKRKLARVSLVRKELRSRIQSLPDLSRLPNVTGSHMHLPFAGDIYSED


What was measured:
Assay in all cases: co-IP
[1] = target: T1, full-length (FL) RPRD1B-3F, tetracycline-inducible, Flp-In T-REx 293 (human)
[2] = target: T1, full-length (FL) RPRD1B-3F, tetracycline-inducible, Flp-In T-REx 293 (human); remark: listed apart in the source
[3] = target: T1, full-length (FL) RPRD1B-3F, tetracycline-inducible, Flp-In T-REx 293 (human); remark: listed apart in the source
[4] = target: endogenous RPRD2 (human (endogenous in HEK293T and Flp-In T-REx 293)) (UniProt Q5VT52)
[5] = target: T1, full-length (FL) RPRD1B-3F, tetracycline-inducible, Flp-In T-REx 293 (human); remark: listed apart in the source
[6] = target: T2, RPRD1A CID domain variant, 3F-tagged (human)
[7] = target: T3, full-length RPRD1A-3F, tetracycline-inducible, Flp-In T-REx 293 (human)
[8] = target: T3, full-length RPRD1A-3F, tetracycline-inducible, Flp-In T-REx 293 (human); remark: listed apart in the source

binding [1]	binding [2]	binding [3]	binding [4]	binding [5]	binding [6]	binding [7]	binding [8]	Molecule
binds weakly	binds	binds	–	–	–	–	–	endogenous RPRD2 (from UniProt Q5VT52 1-1461)
–	–	–	binds	binds	no binding	binds	binds	endogenous RPRD1B (protein, UniProt Q9NQG5 1-326) MSSFSESALEKKLSELSNSQQSVQTLSLWLIHHRKHAGPIVSVWHRELRKAKSNRKLTFLYLANDVIQNSKRKGPEFTREFESVLVDAFSHVAREADEGCKKPLERLLNIWQERSVYGGEFIQQLKLSMEDSKSPPPKATEEKKSLKRTFQQIQEEEDDDYPGSYSPQDPSAGPLLTEELIKALQDLENAASGDATVRQKIASLPQEVQDVSLLEKITDKEAAERLSKTVDEACLLLAEYNGRLAAELEDRRQLARMLVEYTQNQKDVLSEKEKKLEEYKQKLARVTQVRKELKSHIQSLPDLSLLPNVTGGLAPLPSAGDLFSTD
